Data on one substance can be found in article doi:10.1101/2025.11.28.691129.

Chains of the proteins cited; added tags and fusions are not shown. Residues count along the entry.
UniProt P01589, residues 22-272: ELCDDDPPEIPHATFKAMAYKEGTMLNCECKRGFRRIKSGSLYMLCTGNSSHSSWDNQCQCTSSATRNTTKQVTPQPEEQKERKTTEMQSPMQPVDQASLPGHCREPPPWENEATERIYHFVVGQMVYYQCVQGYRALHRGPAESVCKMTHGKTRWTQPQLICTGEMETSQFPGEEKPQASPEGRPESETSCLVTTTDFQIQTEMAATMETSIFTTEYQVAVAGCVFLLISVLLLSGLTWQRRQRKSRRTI
UniProt P01133, residues 971-1023: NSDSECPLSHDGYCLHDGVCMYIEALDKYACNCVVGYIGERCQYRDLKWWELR

This test has as its target mScarlet3-IL-2Rα (interleukin-2 receptor α chain, N-terminally tagged with mScarlet3) (UniProt P01589). The test is described as follows: FRET or BRET. A general note: In BRET a luciferase serves as donor, and the signal depends on an acceptor being close.

Results are given in words; binding and its absence hold for the method and conditions named. Binding seen in cells or lysates may run through a third protein.

“eGFP-sEGF (soluble EGF, N-terminally tagged with eGFP) (from UniProt P01133) (ligand)”: the binding entry is “no binding”.
